These are yes or no findings as the source states them, for the method shown. For some of these results: A result given as binding can be weak or reduced; the word gives no strength. For some of these results: Sequences can lack the tags named with a protein.
T1: C-terminal RRM domain of Pla1 (Pla1RRM, residues 352-566), purified (S. pombe) (UniProt Q10295)
T1 sequence: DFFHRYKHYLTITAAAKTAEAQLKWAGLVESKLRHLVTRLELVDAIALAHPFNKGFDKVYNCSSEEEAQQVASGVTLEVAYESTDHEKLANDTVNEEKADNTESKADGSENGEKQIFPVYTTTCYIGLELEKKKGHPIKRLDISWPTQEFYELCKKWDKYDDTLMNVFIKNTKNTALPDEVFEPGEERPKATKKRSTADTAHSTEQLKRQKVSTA


Experiments:
[1] = biological target: T1, C-terminal RRM domain of Pla1 (Pla1RRM, residues 352-566), purified (S. pombe); experiment: condition: only with Pla1RRM pre-incubated with a 1.1-fold molar excess of Red1_(288-345); ITC; competition: Iss1 titrated into Pla1RRM pre-incubated with a 1.1-fold molar excess of Red1_(288-345); 25 °C, 20 mM HEPES pH 7.5, 150 mM NaCl, 2 mM BME; both purified
[2] = biological target: T1, C-terminal RRM domain of Pla1 (Pla1RRM, residues 352-566), purified (S. pombe); experiment: ITC; competition: Red1_(288-345) titrated into Pla1RRM pre-incubated with a 1.1-fold molar excess of Iss1_(30-76); 25 °C, 20 mM HEPES pH 7.5, 150 mM NaCl, 2 mM BME; both purified
[3] = biological target: Msi2 (1-474) fused to the Gal4 DNA-binding domain (S. pombe); experiment: two-hybrid; Msi2 fused to the Gal4 DNA-binding domain (pGBKT7), MTREC components fused to the Gal4 activation domain (pGADT7); strain PJ69-4A; growth on -Leu-Trp-His and -Leu-Trp-Ade, 30 °C, 3 days
[4] = biological target: Msi2 fused to the Gal4 DNA binding domain (S. pombe); experiment: two-hybrid; Gal4 DNA binding domain (pGBKT7) and activation domain (pGADT7) fusions co-transformed into PJ69-4A; 10-fold serial dilutions on SDC-Leu-Trp, -His (weak) and -Ade (strong), 30 °C, 3 days

Molecule	binding [3]	binding [4]	further results
Iss1 residues 30-76, purified (S. pombe) (domain or fragment)	–	–	binding [1]: no binding; binding [2]: binds
Ars2 (1-609) fused to the Gal4 activation domain (protein, UniProt O94326 1-609) MSEVHQESEVEYSRWKRERSPERSQRRSQSPPGEQSAYHRERSPLRKRGNYYDDRTRASGPYPTFTKPLIDPYTQTNAVSYERFIRWYSKENHISATTEDLYNSLHGTYNNYKQDLYARTARSFVESHCDEAWFEDSYWVDESQGRVLEVSENEKSYRRALYDKFMDRLDAGYYDDFQLPTAEDVIEKPSIPDNDTDDSILPSNDPQLSKWNQDSRNDAMENTLLVSHVLPNISVAQIHNALDGISFVQHFSLSTINLIKNDERSLWVHFKAGTNMDGAKEAVDGIQLDSNFTIESENPKIPTHTHPIPIFEIASSEQTCKNLLEKLIRFIDRASTKYSLPNDAAQRIEDRLKTHASMKDDDDKPTNFHDIRLSDLYAEYLRQVATFDFWTSKEYESLIALLQDSPAGYSRKKFNPSKEVGQEENIWLSDLENNFACLLEPENVDIKAKGALPVEDFINNELDSVIMKEDEQKYRCHVGTCAKLFLGPEFVRKHINKKHKDWLDHIKKVAICLYGYVLDPCRAMDPKVVSTSYVSLQILNKPYVGFRNINANYTFPTTSYSRRNDEEITSGASSQKSYSRQEPMIHRREFYRTYQDLDAPNQEVPELDY	no binding	–	–
Red1 (1-712) fused to the Gal4 activation domain (protein, UniProt Q9UTR8 1-712) MSRSINLDELRKKALESKKKNEEDESNDSDKEDGEISEDDPVIDQSNSVPPMKVPTFPEQIPQLPPFDRFPGTNANFFPFGAPFMLPPALMFGPNTVPFFPQTASSNKTFSKRKRSSENSFNNRNKAKSSETSDSSNTSQSFKENRALKDTATSRPLALSSDTSYQKSEKAKSEKSPFLSTSKNSDANYSKTTNQKEAEKAVSQLFEVGVRFNDFIAEGIEPSVVHTLFLKLGLDSSSASSQGSLTLSADKAARSAKLRKIDSNLSDTHILPGDNGTPTVLPERKNLISLPLLKQDDWLSSSKPFGSSTPNVVIEFDSDDDGDDFSNSKIEQSNLEKPPSNSENGLTMSRSDYLALLRNKEEEIRRMTKLILRLESNKKPYRSPTSAADMKLPSVPVAAVDNKSKTHLDTFEKVVDLSSKADFVEAGPSISSSGASSSAATTNSDTTEQILEAPWLRKTEQIAVVHEEHPAQIKKSEIDILNNLIEKEEGELTKYQTLVKSKTEILTQLYTRKKQLLEQQGKGNVACLPKESDLSMDSITEVSAQADENSSQILSSKTSNAPNGTTETDFEDKVPLVDYISPFYRFKSYRFNQQFVERVPLKYRSLTYSNKIEPMKVFCKYETTGGVCNDDHCEASHFRDIKMTDDEIIQDLSRYIEGNDEIEKESYKSGLDIVMKNTDENTDFVDVATRIVEYHNLWKSERMTIPVAKVSI	no binding	–	–
Pla1 (1-566) fused to the Gal4 activation domain (protein, UniProt Q10295 1-566) MTTKQWGITPPISTAPATEQENALNTALINELKNQNLFESPAESEKRVKVLDELQQITTEFVKKVSLAKHMNEKMANEAGGKIFTYGSYRLGVYGPGSDIDTLVVVPKHVSRDNFFQDLEPMLREREEVTDLAAVPDAYVPIIKFKFLGISIDLIFARLSVPRVPRDLELSDNNLLKGVEERCVLSLNGTRVTDQILQLVPNRAVFKHALRAIKFWAQRRAIYANVVGFPGGVAWAMMVARICQLYPNAVSSVIVAKFFRILHQWNWPQPILLKPIEDGPLQVRIWNPKLYPSDKAHRMPIITPAYPSMCATHNITLSTQTIILREMVRAGEIADQIMVKALPWSALFQKHDFFHRYKHYLTITAAAKTAEAQLKWAGLVESKLRHLVTRLELVDAIALAHPFNKGFDKVYNCSSEEEAQQVASGVTLEVAYESTDHEKLANDTVNEEKADNTESKADGSENGEKQIFPVYTTTCYIGLELEKKKGHPIKRLDISWPTQEFYELCKKWDKYDDTLMNVFIKNTKNTALPDEVFEPGEERPKATKKRSTADTAHSTEQLKRQKVSTA	no binding	–	–
Pab2 fused to the Gal4 activation domain (protein, UniProt O14327 1-166) MSDQDALDTQEKELLEMKERVAEMEAEAAKLRAMQEQLDNETEALRNDKESIDAQSVYVGNVDYSVTPEELQSHFASCGSVNRVTILCDKFTGHPKGFAYIEFSEPSLVPNALLLNGSMLHERPLKVTPKRTNVPGMSRGRGRGRGRGRGRGRGGYRGRARGFAPY	–	binds	–
Mmi1 fused to the Gal4 activation domain (protein, UniProt O74958 1-488) MSNTNFSTSRSSKSIPELPNLEALRSLWPPPSLNESGDTRSVWTTHTGEPVASSVLSTSGSNNFSSPLKRPAPESHDAPIGRRLMVDDPRLIKHGKYDFSRHCTDYGHSYEWPYFRSLRRESMLYHTSGSYPESQPPYSSYSTDAPHYYHAGSESSAYYDSRSRLHGIQPPPKRRTLSPPPRRLADPVVVGSSRYVEEEVYRRPPYTLASEVPSSASAYQAGYSSYPVRSSPQLSHEDTRHGIASSGSTRYPFVPANTRASHSPSLLEPYAHSLPSSVAPVGAYPEKSSYLLSNSSNDSASRKEKPKARASTPPPLNFSRASEHRNEKGERISMINPRVVLDENGISHRSRYFIMLCDNETAIAHAKKTSIWAVKKDSSKRISDAYKKASVYFIFVAQQTYNALGYAQVVSDLNSTELPFWSDSSHAGGVRIKWIKTCNLFSAEISEIVSHMDHGSEARDGMEMMYDEGSRLCTLINYAIMKRIGRDR	–	binds	–

Source: paper PMC9922296, “Mechanistic insights into RNA surveillance by the canonical poly(A) polymerase Pla1 of the MTREC complex” (Nature Communications, 2023)
